These are yes or no findings as the source states them, for the method shown. Tags and fused reporters may be left off the sequences shown.
Biological target: T1, GST-eIF4A (GST-His6-eIF4A) (S. cerevisiae) (UniProt P10081)
T1 sequence: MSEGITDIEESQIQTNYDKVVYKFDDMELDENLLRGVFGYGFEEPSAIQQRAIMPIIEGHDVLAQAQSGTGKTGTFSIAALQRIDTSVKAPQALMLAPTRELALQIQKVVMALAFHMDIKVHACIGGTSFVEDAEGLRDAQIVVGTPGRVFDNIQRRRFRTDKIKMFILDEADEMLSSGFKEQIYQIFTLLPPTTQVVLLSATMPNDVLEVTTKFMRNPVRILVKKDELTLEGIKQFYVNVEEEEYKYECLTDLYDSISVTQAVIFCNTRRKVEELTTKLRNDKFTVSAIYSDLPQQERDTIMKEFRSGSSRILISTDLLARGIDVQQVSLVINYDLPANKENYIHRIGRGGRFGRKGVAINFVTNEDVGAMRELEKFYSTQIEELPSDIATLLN
Assay: pull-down; 1500 nM GST-eIF4A on glutathione sepharose 4B; 1500 nM Ded1p^117-604 or Ded1p^1-535; 20 µg/mL RNases A,B; 5 µg/µL BSA; 8°C overnight; washed with RIPA buffer; Western blot with α-Ded1p; both purified

Chains of the proteins cited; added tags and fusions are not shown. Lines headed by an entry give the natural chain unless they say otherwise; changes in a name come on top. Residues count along the entry.
UniProt P06634, residues 117-604: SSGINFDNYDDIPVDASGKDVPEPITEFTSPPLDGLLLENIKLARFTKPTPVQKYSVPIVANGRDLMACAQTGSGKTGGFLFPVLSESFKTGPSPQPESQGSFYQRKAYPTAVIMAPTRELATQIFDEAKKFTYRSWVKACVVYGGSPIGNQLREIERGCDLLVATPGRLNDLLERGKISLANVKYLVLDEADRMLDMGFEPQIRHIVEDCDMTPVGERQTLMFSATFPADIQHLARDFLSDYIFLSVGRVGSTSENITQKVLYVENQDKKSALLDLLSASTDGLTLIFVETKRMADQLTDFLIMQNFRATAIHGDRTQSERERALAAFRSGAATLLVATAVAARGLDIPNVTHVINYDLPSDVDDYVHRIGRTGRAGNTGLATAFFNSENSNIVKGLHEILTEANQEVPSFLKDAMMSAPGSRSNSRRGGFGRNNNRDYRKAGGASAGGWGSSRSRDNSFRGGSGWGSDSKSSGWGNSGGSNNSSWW

binding: no binding (tested: 1500 nM)
Substance: Ded1p^117-604 (N-terminus deleted) (from UniProt P06634 117-604) (domain or fragment)
